The source of these data is PubChem BioAssay AID493014 (National Center for Advancing Translational Sciences (NCATS), 2011).

The nature of this experiment: qHTS Assay to Find Inhibitors of Chronic Active B-Cell Receptor Signaling. The conditions noted are these: ABC-DLBCL IkBa-CBG/CBR reporter, luminescence ratio (green luciferase fused to IkBa over red control in TMD8 lymphoma cells), 4 h. In short, it runs like this:
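TMD8 human ABC-DLBCL cells with doxycycline-inducible IκBα–green luciferase fusion and unfused red luciferase, in 0.5% FBS medium; compounds up to 46 uM, 4 h at 37C. Green/red luminescence ratio, filter-overlap corrected, fitted to concentration-response curves.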
(In general: Quantitative high-throughput screening tests each substance at several concentrations.)

Where [1] appears, read: measured here: CBR red luminescence, cell number.
Where [2] appears, read: measured here: IkBa-CBG green luminescence.

The structures appear in SMILES notation. This is one part of the list. These are further read-outs of the screen, such as a control signal, another cell line or another target. No call is given for them. Compounds called inactive in the main read-out are mostly missing here. The note in brackets gives the kind of curve behind each potency; many fits are weak.

Turning to `COc1ccc2ccccc2c1/C=N/NC(=O)c1sc(N)c(C#N)c1C`, the half-maximal activity concentration (AC50) under setting [1] is 29.1 µM [falling, single point]. `O=C1NC(=O)[C@@H]2C3c4ccccc4C=CN3[C@H](C(=O)c3cccs3)[C@H]12` (stereo partly drawn): the concentration at half-maximal activity (AC50) under setting [1] is 20 µM [falling, partial curve, poor fit]. The same measure, in the same setting: the value for `O=C1/C(=C/c2ccncc2)CCc2ccccc21` was 17.8 µM [falling, single point]. Consider `COc1ccc(N2CCN(C(c3ccccc3)c3sc4nc(-c5ccco5)nn4c3O)CC2)cc1` (stereo not drawn), for which, under setting [1], the AC50 is 2.51 µM [rising, full curve, poor fit]. On to `CCc1ccc(NC(=O)C(C)OC(=O)c2cccc(S(=O)(=O)N3CCc4ccccc4C3)c2)cc1` (stereo not drawn), for which, under setting [1], the AC50 was 5.8 µM [rising, partial curve]. Turning to `CCN1C(=O)/C(=C2/C=Cc3ccccc3N2CC)SC1=S`, the AC50 under setting [1] was 35.5 µM [rising, single point]. `COc1ccc(C(=O)NC(=S)NNC(=O)Cc2cccs2)cc1`: under setting [1], the AC50 is 2.82 µM [rising, full curve, poor fit]. Still for that read-out and setting: the value for `CSC1=N/C(=C\c2ccc(C)o2)C(=O)S1` was 20 µM [rising, single point]; that for `CCSc1nc2ccc(OC)cc2cc1C#N` was 1.46 µM [rising, full curve]. Same read-out and setting: the same measure for `Cc1nc(NCC2CCCO2)c2nnn(Cc3c(F)cccc3Cl)c2n1` (stereo not drawn): 35.5 µM [falling, partial curve, poor fit]; for `O=C(NCCc1ccccc1)C(=O)c1c[nH]c2ccccc12`: 1 µM [falling, full curve].

For `O=c1[nH]cnc(O)c1N=Nc1ccccc1`, under setting [1], the AC50 is 12.6 µM [falling, partial curve, poor fit]. Same read-out and setting: the same measure for `O=C1NCCN/C1=C\C(=O)c1ccc(F)cc1`: 11.2 µM [falling, partial curve]; for `Cc1noc(C)c1COc1ccc(CC(=O)NC2CCCCCC2)cc1`: 35.5 µM [rising, partial curve, poor fit]. The same measure, in the same setting: the same measure for `COc1ccccc1NC(=O)CSC1=Nc2ccccc2C2=NC(CCC(=O)NCCc3ccccc3)C(=O)N12` (stereo not drawn): 8.91 µM [falling, partial curve, poor fit].

In the case of `CCN1C(=O)[C@H]2[C@@H](c3ccc(-c4ccc(F)cc4)cc3)N3CCCC[C@@]3(C(=O)OC)[C@H]2C1=O`, under setting [1], the AC50 is 7.31 µM [falling, partial curve]. For the molecule `CCN(CC(=O)Nc1c(C(=O)OC)[nH]c2ccc(C)cc12)c1ccc2c(c1)OCO2`, the concentration at half-maximal activity (AC50) under setting [1] was 11.2 µM [falling, partial curve]. Take `CCOC(=O)c1c(-c2ccc(C)o2)csc1NC(=O)CSc1nncs1`: the half-maximal activity concentration (AC50) under setting [1] is 0.224 µM [falling, full curve, poor fit]. On the same count and under the same terms, the same measure for `COc1ccc(C2C(C#N)=C(N)N3C(=C2C#N)Sc2ccccc23)cc1` (stereo not drawn): 6.31 µM [rising, single point]; for `O=C(Cc1cc(=O)[nH][nH]1)N/N=C/c1ccccc1[N+](=O)[O-]`: 23.1 µM [rising, partial curve, poor fit]. As to `CC(=NNC(=O)c1cc(C)nc2ccccc12)c1ccc(N2CCOCC2)cc1`, the AC50 is 18.4 µM [rising, single point] under setting [1] and 20.6 µM [falling, partial curve] under setting [2]. As for `CC(C)(C)c1ccc(CN(Cc2ccco2)Cc2nnnn2C2CCCC2)cc1`, under setting [2], the AC50 is 1.12 µM [rising, full curve, poor fit]. Turning to `Clc1ccc(OCc2nn3c(C4CCCCC4)nnc3s2)cc1`, under setting [1], the concentration at half-maximal activity (AC50) is 1.84 µM [falling, partial curve].

Take `Cc1cccc(NC(=O)C2CCCN2C(=O)Oc2ccccc2)c1C` (stereo not drawn): the AC50 under setting [1] was 16.4 µM [rising, partial curve, poor fit]. `CC(C)=CCN1CCN(Cc2ccc(Sc3nncn3C)o2)CC1CCO` (stereo not drawn): the half-maximal activity concentration (AC50) by setting is: under setting [1], 22.4 µM [rising, single point]; under setting [2], 22.4 µM [falling, single point]. For `COc1ccccc1-n1cnc2sc(-c3ccccc3)cc2c1=O`, the AC50 under setting [1] is 0.126 µM [falling, full curve]. Turning to `COCc1nnc(NC(=O)CCS(=O)(=O)c2ccccc2)s1`, the AC50 under setting [1] was 17.8 µM [falling, partial curve].

Take `COc1cc2c(-c3ccc4c(c3)OCO4)c(-c3ccsc3)oc(=O)c2cc1OC`: the concentration at half-maximal activity (AC50) under setting [1] is 4.61 µM [falling, single point]. Same read-out and setting: the value for `C=CCNC(=O)COC(=O)c1c2c(nc3ccccc13)CCC2` was 0.631 µM [falling, full curve]. In the case of `Clc1cccc(-c2nc(NCCN3CCOCC3)c3ccccc3n2)c1`, the AC50 under setting [1] is 17.8 µM [falling, single point]. Still for that read-out and setting: the same measure for `CCOC(=O)N1CCN(C(=O)c2cc(COc3ccc(OC)cc3Cl)on2)CC1`: 25.1 µM [falling, single point]; for `O=C(Nc1ccccc1F)Nc1ccc([N+](=O)[O-])cc1Cl`: 0.316 µM [rising, full curve, poor fit]. On to `Cc1ccc(-c2cnn(-c3ccccc3)c2N)cc1`, for which the concentration at half-maximal activity (AC50) under setting [1] was 3.55 µM [falling, full curve]. Same read-out and setting: the same measure for `COCCNC(=O)c1cccc(OC2CCN(Cc3cccc(C(C)=O)c3)CC2)c1`: 22.4 µM [rising, single point]; for `CCOC(=O)c1csc(NNC=O)n1`: 0.731 µM [rising, full curve, poor fit]. On the same count and under the same terms, the value for `COc1ccc(-c2csc(Nc3ccc(O)cc3)n2)cc1` was 1.41 µM [falling, full curve]; that for `O=C(/C=C/c1cccc(C(F)(F)F)c1)Nc1cccc(C(F)(F)F)c1` was 35.5 µM [falling, single point]; that for `Cn1nnc2cc(C(=O)Nc3ccc(Cl)cc3)ccc21` was 31.6 µM [rising, single point]. `NC(=O)c1ccccc1NC(=O)Nc1ccc(F)c(Cl)c1`: the AC50 under setting [1] was 12.6 µM [falling, partial curve, poor fit].

On to `COc1cc(OC)cc(-c2cc3nc(C)c(CCC(=O)NCc4ccccc4)c(C)n3n2)c1`, for which the AC50 under setting [1] was 6.31 µM [falling, partial curve]. `O=C1CS/C(=N\C(=O)N2c3ccccc3Sc3ccccc32)N1`: the AC50 under setting [1] is 25.9 µM [rising, single point].

The AC50 is the concentration at which the activity in the assay is half-maximal.
